Data as given in patent publication US20140135270A1 (Ensemble Therapeutics Corp., priority 2012, published 2014).

Assay: general procedure: Fmoc solid-phase peptide synthesis; 2-chlorotrityl resin (Annaspec, 1.58 mmol/g); HATU/NMM
Settings: TFA salt converted to HCl salt (Example 1)

Row | Substance | step yield (coupling step) [%] | step yield (late stage modification step) [%]
1 | (S)-Methyl 2-((2S,4S)-4-allyl-1-((S)-2-((S)-2-((tert-butoxycarbonyl)(methyl)amino)propanamido)-3,3-dimethylbutanoyl)pyrrolidine-2-carboxamido)-3-(naphthalen-2-yl)propanoate | 64 | 
2 | (S)-2-((2S,4S)-4-Allyl-1-((S)-2-((S)-2-((tert-butoxycarbonyl)(methyl)amino) propanamido)-3,3-dimethylbutanoyl)pyrrolidine-2-carboxamido)-3-(naphthalen-2-yl)propanoic acid |  | 98
3 | tert-Butyl((S)-1-(((S)-1-((2S,4S)-4-allyl-2-(((S)-1-(((S)-1-(cyclopropanesulfonamido)-1-oxo-3-(4-(prop-2-yn-1-yloxy)phenyl)propan-2-yl)amino)-3-(naphthalen-2-yl)-1-oxopropan-2-yl)carbamoyl)pyrrolidin-1-yl)-3,3-dimethyl-1-oxobutan-2-yl)amino)-1-oxopropan-2-yl)(methyl)carbamate | 76 | 
